Reference: the supplement of paper PMC5949888
Most values lie at the floor of the assay. Slopes are relative: functional sequences can read slightly below zero.

tested on: Saccharomyces cerevisiae PS128 hsf1 delta, HSF1(1-493) fusion; test: growth estimate (transactivation domain function in HSF1 fusion, heat-shock survival) (a.u. (slope of normalised read count over time)); higher = stronger growth at 37°C, i.e. more transactivation activity; conditions: library: random library
Description: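 Random 60-nt DNA library encoding peptides of up to 20 aa, fused to the C-terminus of yeast HSF1 residues 1-493 (C-terminal TAD deleted) and expressed from the native HSF1 promoter on a CEN plasmid in hsf1-deleted S. cerevisiae PS128. Cells were selected at 37°C on -trp 5-FOA plates for 0, 2, 4, 6 and 8 days and amplicons were sequenced. Growth estimate is the slope of a robust linear fit of total-sum-normalised read counts (normalised to the first time point) over time, using at least 2 replicates. Sequences are classed functional (TAD activity) above a threshold of -0.13, set from stop-codon control sequences.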

Row | Substance | growth estimate
1 | GWALSPGAEACAGKDRISRA | < -0.25
2 | GWFGTNP | < -0.25
3 | GWGSGRNHRLSPLRNVDCQG | < -0.25
4 | GWILSHCSTYQLSDMLGVTS | < -0.25
5 | GWIRTTKGSIRYSVSYKVML | < -0.25
6 | GWIVK | < -0.25
7 | GWLFGDCATS | -0.229
8 | GWLIDYQYLTHFT | < -0.25
9 | GWLIEGDPRARLLFVTMGHP | < -0.25
10 | GWLRQC | < -0.25
11 | GWLSVGIFGGRPLRSYPLKA | < -0.25
12 | GWPGDLCTFAHCWNNADVGH | < -0.25
13 | GWREGPTSAQARRPES | -0.246
14 | GWSARCVNLTSVFQCARGPR | -0.246
15 | GWSDTLLRICELRAAASGSP | < -0.25
16 | GWSKC | < -0.25
17 | GWTLWAMNACSRDWLARCSR | < -0.25
18 | GWVRLAALLSIWLNRLPFNP | < -0.25
19 | GWVSALAPPVGPL | < -0.25
20 | GWVVSTG | < -0.25
21 | GWYRGGESWGTHRN | < -0.25
22 | GYANPHEVR | < -0.25
23 | GYASPDVEREGSLGFPIPAL | < -0.25
24 | GYASSRCIGISYYATSHLDH | < -0.25

Row | Substance | growth estimate
25 | GYDGFSCN | < -0.25
26 | GYERMKIGS | < -0.25
27 | GYFRALAKYWYCPDRFADST | < -0.25
28 | GYFSKTAPEGKDDRIVRYTR | < -0.25
29 | GYGELLRPPRGDAVITHLVV | < -0.25
30 | GYGLSSVTSNLGVSNELGA | < -0.25
31 | GYGVPLALEGSHGDFWPQSG | < -0.25
32 | GYHDLLTVRPPPLSYLYGPE | < -0.25
33 | GYILCG | < -0.25
34 | GYLCNTLLGLRRYR | < -0.25
35 | GYLELVWNNREKTVTPGIKR | < -0.25
36 | GYLRPGYGEHVA | < -0.25
37 | GYNMRLTLASGGNNPVLTNP | < -0.25
38 | GYNSCCEIFFPRRGVAWPSG | < -0.25
39 | GYRHASEVLARHS | < -0.25
40 | GYRIGT | < -0.25
41 | GYRITYQQEYDKALNRDCNL | < -0.25
42 | GYRPWHIMSVNSKAATAPRG | < -0.25
43 | GYRRFAWLVYGLEFKSGAFF | < -0.25
44 | GYSMGGPRKFALAKAPMHAV | < -0.25
45 | GYSSCSTSWCGNAFLYSATV | < -0.25
46 | GYTLSPSESVI | < -0.25
47 | GYVGLCHRQWPLAM | < -0.25
48 | HAIDVVARSSQGSSR | < -0.25

Row | Substance | growth estimate
49 | HAM | < -0.25
50 | HAN | < -0.25
51 | HARSLLVSSQLGIAVPALGP | < -0.25
52 | HASEGLEDEVEDGCRHHNRL | -0.16
53 | HAVKAQNTARGDTPGQSIIG | < -0.25
54 | HAWPHVNGTARQRAR | < -0.25
55 | HAYLPQA | < -0.25
56 | HCCTNSATQYTESERSKLP | < -0.25
57 | HCGHISRRPNIWR | < -0.25
58 | HCKRRRPQEIVTLL | < -0.25
59 | HCLAGTGVQSVEKVLALYAD | < -0.25
60 | HCLHDKFLCALVRQLG | < -0.25
61 | HCLVSTDGPHPFRQADPRQ | < -0.25
62 | HCNLLRRTG | < -0.25
63 | HCRSDGRFSALISIIKRKHF | < -0.25
64 | HCSLEGFGARFLGKCWCSAV | < -0.25
65 | HDDRHSPVFPDLGECISTMR | < -0.25
66 | HDGRDGHDLTPRRTLALAGK | < -0.25
67 | HDGRVDERVSLSQNCVRSAW | < -0.25
68 | HDILRARQPAAP | < -0.25
69 | HDML | < -0.25
70 | HDPKPGSALIRLLKVIDITV | < -0.25
71 | HDSALHSYRDEDLTGGRSLG | < -0.25
72 | HDSLYTRSLPSA | < -0.25

Row | Substance | growth estimate
73 | HDSVSYDRFSPRVLQPLPRS | < -0.25
74 | HDTTS | < -0.25
75 | HDYRIIRYTSKLEPRAL | < -0.25
76 | HEAFSERVHGY | < -0.25
77 | HEAQTAIRAKDPGRLTWPNR | < -0.25
78 | HEEAQHYLGRVTCTHLFSDT | < -0.25
79 | HEGSCAQMRGAYELIKRYGS | < -0.25
80 | HEGWGYNFILDPRYDRGVST | -0.246
81 | HEHQ | < -0.25
82 | HEIAHPYLRSWGP | < -0.25
83 | HEIGGCRGISA | < -0.25
84 | HELDLRCAGLVQYPRSNLDL | < -0.25
85 | HELKMIAVEVGSSFHLT | < -0.25
86 | HETCV | < -0.25
87 | HFAQALRVLWPGQIMGSRFW | < -0.25
88 | HFCRDSGFDGLSIPHLNLQW | < -0.25
89 | HFDPFVPPNSGYPDGP | < -0.25
90 | HFEMDAS | < -0.25
91 | HFGQVA | < -0.25
92 | HFITPGA | < -0.25
93 | HFKIVSE | < -0.25
94 | HFKMAAMGEFHMVGVPKIPV | < -0.25
95 | HFRKGVWLEWS | < -0.25
96 | HFSIVGCRCGAQSILSKWGS | < -0.25

Row | Substance | growth estimate
97 | HFTSRTARFRVDWLERL | < -0.25
98 | HFVPMIAVRN | < -0.25
99 | HGANHST | < -0.25
100 | HGAYGNKGLRNTGQSLAVD | < -0.25
101 | HGEHR | < -0.25
102 | HGFWSKLCI | < -0.25
103 | HGIRVQLWTMIISTRLCRCI | < -0.25
104 | HGLSVAGLFAYATLVAYQFI | < -0.25
105 | HGPCSFNVSFFVGFLQRICA | < -0.25
106 | HGPLIDSRPFGCLCEEQVSA | < -0.25
107 | HGQCSAGSRWHSDANVRMPG | < -0.25
108 | HGQINAREDIVGSGPLFLNS | < -0.25
109 | HGQRVGPGHTIRRPRYTMRQ | < -0.25
110 | HGRMLNLHGQSGGMKAWVSH | < -0.25
111 | HGRVI | < -0.25
112 | HGSKIFKSCTYRTHVRPGLP | < -0.25
113 | HGSRVGFQPLGRKLERRLGS | < -0.25
114 | HGVGRIRT | < -0.25
115 | HGVMIQR | < -0.25
116 | HGVRHWVKGCTQSGLFSLRR | < -0.25
117 | HGVVADRKGGWLGSRCPRRL | < -0.25
118 | HGWRSRMGL | < -0.25
119 | HHGRQIRGLSIVTQLG | < -0.25
120 | HHH | < -0.25

Another view of part of the listing above.

| Row | Substance | growth estimate |
| --- | --- | --- |
| 72 | HDSLYTRSLPSA | < -0.25 |
| 73 | HDSVSYDRFSPRVLQPLPRS | < -0.25 |
| 74 | HDTTS | < -0.25 |
| 75 | HDYRIIRYTSKLEPRAL | < -0.25 |
| 76 | HEAFSERVHGY | < -0.25 |
| 77 | HEAQTAIRAKDPGRLTWPNR | < -0.25 |
| 78 | HEEAQHYLGRVTCTHLFSDT | < -0.25 |
| 79 | HEGSCAQMRGAYELIKRYGS | < -0.25 |
| 80 | HEGWGYNFILDPRYDRGVST | -0.246 |
| 81 | HEHQ | < -0.25 |
| 82 | HEIAHPYLRSWGP | < -0.25 |
| 83 | HEIGGCRGISA | < -0.25 |
| 84 | HELDLRCAGLVQYPRSNLDL | < -0.25 |
| 85 | HELKMIAVEVGSSFHLT | < -0.25 |
| 86 | HETCV | < -0.25 |
| 87 | HFAQALRVLWPGQIMGSRFW | < -0.25 |
| 88 | HFCRDSGFDGLSIPHLNLQW | < -0.25 |
| 89 | HFDPFVPPNSGYPDGP | < -0.25 |
| 90 | HFEMDAS | < -0.25 |
| 91 | HFGQVA | < -0.25 |
| 92 | HFITPGA | < -0.25 |
| 93 | HFKIVSE | < -0.25 |
| 94 | HFKMAAMGEFHMVGVPKIPV | < -0.25 |
| 95 | HFRKGVWLEWS | < -0.25 |
| 96 | HFSIVGCRCGAQSILSKWGS | < -0.25 |
| 97 | HFTSRTARFRVDWLERL | < -0.25 |
| 98 | HFVPMIAVRN | < -0.25 |
| 99 | HGANHST | < -0.25 |
| 100 | HGAYGNKGLRNTGQSLAVD | < -0.25 |
| 101 | HGEHR | < -0.25 |
| 102 | HGFWSKLCI | < -0.25 |
| 103 | HGIRVQLWTMIISTRLCRCI | < -0.25 |
| 104 | HGLSVAGLFAYATLVAYQFI | < -0.25 |
| 105 | HGPCSFNVSFFVGFLQRICA | < -0.25 |
| 106 | HGPLIDSRPFGCLCEEQVSA | < -0.25 |
| 107 | HGQCSAGSRWHSDANVRMPG | < -0.25 |
| 108 | HGQINAREDIVGSGPLFLNS | < -0.25 |
| 109 | HGQRVGPGHTIRRPRYTMRQ | < -0.25 |
| 110 | HGRMLNLHGQSGGMKAWVSH | < -0.25 |
| 111 | HGRVI | < -0.25 |
| 112 | HGSKIFKSCTYRTHVRPGLP | < -0.25 |
| 113 | HGSRVGFQPLGRKLERRLGS | < -0.25 |
| 114 | HGVGRIRT | < -0.25 |
| 115 | HGVMIQR | < -0.25 |
| 116 | HGVRHWVKGCTQSGLFSLRR | < -0.25 |
| 117 | HGVVADRKGGWLGSRCPRRL | < -0.25 |
| 118 | HGWRSRMGL | < -0.25 |
| 119 | HHGRQIRGLSIVTQLG | < -0.25 |

Later entries

Row | Substance | growth estimate
121 | HHRERSHVSVRTASDSDPAL | < -0.25
122 | HHRHHKGMAKCSMVSLILSW | < -0.25
123 | HHTSIASELAAYFSCLLRRQ | < -0.25
124 | HHWEIPLRRVGPSSHIGDQL | < -0.25
125 | HICHPV | < -0.25
126 | HIEGGLGILAGAIYPSGGPP | < -0.25
127 | HIENGGVPAGLSQGCLRGRT | < -0.25
128 | HIFLKCEP | < -0.25
129 | HIGNGGVPGVLMRSGRCAVE | < -0.25
130 | HIGVVRIVGTDPVGEQCT | < -0.25
131 | HILKMGSTVIFAPRPTRWRY | < -0.25
132 | HIPTIVRIYCLIPLLFTVSV | < -0.25
133 | HISGVRVILFYG | < -0.25
134 | HISRSCICRWGQIKCRWGVY | < -0.25
135 | HISVLSPLGGGVACITTV | < -0.25
136 | HKGPPQEGTKD | < -0.25
137 | HKIDKTKVVGVSLVGERIPV | -0.247
138 | HKIK | < -0.25
139 | HKPIASNGYAVILHCEADTY | < -0.25
140 | HKPPITLPRRRRVITGFKVH | < -0.25
141 | HKQMDSPLSGQPAPSFLKNH | < -0.25
142 | HLAGRDFNQLGDSSPPLGAV | < -0.25
143 | HLAVAGGDGEGVDMPSVTCL | < -0.25
144 | HLCRGPSFHSESLHGICECG | < -0.25

Row | Substance | growth estimate
145 | HLDPSEVLDAGGGWFNPAGW | < -0.25
146 | HLEPTSSRSEAGTTGHVTSM | < -0.25
147 | HLGGWRVEGNIDCSGKTAQS | < -0.25
148 | HLHRDIILFPSPGMPADVLT | < -0.25
149 | HLLLRPLRQVVCSWVVVGVI | < -0.25
150 | HLLLSSNFVGILCQPLRSHR | < -0.25
151 | HLLNPPSMAYLKRWDLSR | -0.207
152 | HLLSAS | < -0.25
153 | HLMPEPALQASGRITEVLC | < -0.25
154 | HLMVG | < -0.25
155 | HLPPRNQLMSEKSECSPWPS | < -0.25
156 | HLSAKDRSGEGERVTGRRER | < -0.25
157 | HLSYNARLAPRDYPKGAPGS | < -0.25
158 | HLTDAGIFPNL | < -0.25
159 | HLVAFILRNLEAAKSILTTG | < -0.25
160 | HLVFGFIR | < -0.25
161 | HMD | < -0.25
162 | HMLGLRSFVRAE | < -0.25
163 | HNALLITRPVRFL | < -0.25
164 | HNCWAGG | -0.0591
165 | HNDRSLSTPQMRSVTVYDLI | < -0.25
166 | HNFNSKSRPGKGPCETRHRY | < -0.25
167 | HNFTSRGICASFKVFSSGNP | -0.239
168 | HNGMLMCYMERECLASRHNC | < -0.25

Row | Substance | growth estimate
169 | HNI | < -0.25
170 | HNNDRVTEGVFCHDS | < -0.25
171 | HNPLGGSMKPHPSFKLGRGR | < -0.25
172 | HNPSLYAVHWGTNGRWTL | < -0.25
173 | HNRNFKRSS | < -0.25
174 | HNRWLDLESGQLKFDKAP | < -0.25
175 | HNS | < -0.25
176 | HPAITPTNGAGENELTARDV | < -0.25
177 | HPALGELARPVNSDIF | < -0.25
178 | HPEFGWG | < -0.25
179 | HPGPR | < -0.25
180 | HPIWLSHGRQEGVTVR | < -0.25
181 | HPKSETTGPCRELKAVWGGS | < -0.25
182 | HPL | < -0.25
183 | HPLGLPIGSTCTTTAALLCA | < -0.25
184 | HPLRKAAIDICLVRL | -0.196
185 | HPMRRIIR | < -0.25
186 | HPQWAGSYLCSPRKTYG | < -0.25
187 | HPR | < -0.25
